At least one peptide structure holds a part that was inferred or is arguable (an end, a ring closure or a residue). Some compounds share one wording; it may come from a single statement. Where a SMILES comes first, the peptide text is derived from it. Where no end group is shown, it is not given here. [ ]: non-standard residue; d: D form. The star is where a group is joined. AEEA = NCCOCCOCC(=O)O; Butyryl = CCCC(=O)*
Assays:
human ARPE19 cells = assay: Cell viability by ATP levels (CellTiter-Glo), serum starvation or H2O2; assay type: cell-based; details: for *ATP % to P78: change versus control standard P78; for *ATP % to C: change versus non-treated stressed control (C); for ATP viability tests: selection for in vivo studies: serum starvation and 300 uM H2O2, 25 nM peptide, 48 hr
Procedure: (§1) The analogs were tested for their efficacy in reducing levels of TNFα, IFNγ, VEGF-A and increasing cell viability in in vitro assays. Efficacy was compared to both non-treated oxidative stressed controls and the control standard P78.
(§2) Briefly, to test efficacy of the compounds in preventing cell death, experiments were performed to screen for the ability of each analog to: 1) increase cellular bioenergetic levels in an ATP assay and 2) reduce cell death in an LDH assay. To test the action of each analog on inflammatory processes, Luminex bead arrays were used to examine the ability of each analog to decrease production of inflammatory cytokines. To test for the potential of each analog to reduce vascular leakage, qPCR was used to examine the ability of each analog to increase mRNA levels of ZO1 and occludin, two junction proteins essential to vascular integrity. To test peptide stability in the vitreous, the analogs were incubated with dissected vitreous humor and the samples were analyzed at various time points using Maldi-TOF. These tests allowed for the systematic selection of analogs having the least toxicity and the strongest potential to reduce pathology in vivo.
The effects of the peptides to increase cell viability by increasing levels of ATP were tested in two models of cell death: (i) serum starvation; (ii) oxidative stress caused by hydrogen peroxide toxicity (300 uM). With respect to serum starvation, human ARPE19 cells were grown to ˜85% confluency in 10% serum containing medium after which the cells were placed in serum-free medium for 48 hr in the presence or absence (control) of 25 nM of each peptide. For ATP assay, CellTiter-Glo® reagents were used and luminescence was determined after 12 min spectrophotometrically (n=4) (FIG. 2A). With respect to oxidative stress, human ARPE19 cells were grown to ˜85% confluency in 10% serum containing medium. The cells were then treated with 300 uM H2O2 for 48 hours in the presence or absence (control) of 25 nM of each peptide. Levels of ATP were measured and % luminescence to controls and P78 was quantitated (n=4). Changes to ATP levels are plotted against control values and p values are given to P78 (FIG. 2B).

TNFα = TNFα secretion by RPE cells, Luminex; assay type: cell-based, human; details: for *TNFα % to P78: change versus control standard P78; for *TNFα % to C: change versus non-treated stressed control (C)
Procedure: as §1, §2
(§3) Experiments were designed to assess the effects of each peptide compared to P78 on the inflammatory and vascular permeability/angiogenesis cytokines TNFα, IFNγ, and VEGFA. Briefly, human retinal RPE cells were grown to ˜75% confluency in 10% serum containing medium. The cells were then exposed to serum starvation in the presence or absence (control) of 25 nM of each peptide including the prototype P78 and the active fragment of P78, SpxA1. The supernatant from each treatment was tested for effects on the secretion of TNFα, IFNγ, and VEGFA. The data represent the percent change to the control samples and p values are given for each peptide in relationship to the P78 treatment (FIGS. 3A through 3B).

IFNγ = IFNγ secretion by RPE cells, Luminex; assay type: cell-based, human; details: for *IFNγ % to P78: change versus control standard P78; for *IFNγ % to C: change versus non-treated stressed control (C)
Procedure: as §1, §2, §3

VEGFA = VEGFA secretion by RPE cells, Luminex; assay type: cell-based, human; details: for *VEGF % to P78: change versus control standard P78; for *VEGF % to C: change versus non-treated stressed control (C)
Procedure: as §1, §2, §3

RPE cultures = assay: In vitro tests of inflammation, angiogenesis and cell viability, summarised together; assay type: cell-based, human
Procedure: as §1
The analogs disclosed in Table 1 were assayed for improved stability and efficacy in in vitro assays for inflammation, angiogenesis, and cell death, which are the three leading pathological features of diabetic retinopathy.
as §2
Twenty P78 peptide analogs were generated. The size of the analogs ranged from 35 to 12 amino acids in length (Table 1). These peptides had internal amino acid substitutions of the sequence and/or helix stabilization and hydrophobic cap changes to improve peptide stability and efficacy.

[1] = system: albumin leakage in the retina; assay: Vascular leakage: albumin extravasation in retina (ELISA, confocal microscopy); assay type: in vivo, Ins2Akita mouse; details: 15 weeks of diabetes, 5 μg eye drop 2×/wk
ZO1 and occludin = assay: qPCR of tight junction mRNA (potential to reduce vascular leakage); assay type: cell-based; details: compared to P78 and SpxA1
Procedure: as §2
To test for the potential of each peptide (81-2, 81-5, 81-12, 81-13 and 81-20) to reduce vascular leakage, qPCR was used to examine the ability of each analog to increase mRNA levels of Z01, a junction protein essential to vascular integrity (FIG. 4A).

VEGF = assay: Vitreous VEGF after 15 wks eye drops (Luminex); assay type: in vivo, Ins2Akita mouse; details: 5 μg eye drop 2×/wk for 15 wks, relative to diabetic controls
Procedure: From the in vitro P78 peptide analog screening studies, five structurally diverse analogs with best biological activity were selected to test their efficacy in the diabetic mouse eye. In vivo effects of these peptides were tested in the Ins2Akita mouse model of DR, a well-characterized DR model that has a mutation in the insulin gene. Heterozygote Ins2Akita mice (Jackson Lab) become hyperglycemic (HG) at ˜4.5 wks of age. RGC death and inflammation occur within the first 4-6 wks of DR and vascular pathology is first noticed ˜13 wks after the onset of diabetes. The studies were designed to identify peptide candidates with pleotrophic effects on cell death, inflammation, and vascular leakage in the diabetic retina.
Male hyperglycemic mice with blood glucose levels >300 mg/dL were used and treatments carried as previously described for P78 (Liu et al., 2012, Mol. Med., 18(1): 1387-1401). Diabetic mice were treated 2×/wk for 15 wks at the onset of HG using a single dose of 5 μg/5 μl artificial tears for each drug, a dose at which P78 is effective. Both eyes received the same treatment to avoid drug cross contamination between the eyes of an individual animal. […]
Levels of VEGF were also quantitated in the vitreous of the 15 wks peptide treated and control groups using the Luminex bead technology. […]

[2] = CD spectroscopy of peptide structure; assay type: physicochemical
IL-6 = assay: Vitreous IL-6 after 15 wks eye drops (Bioplex); assay type: in vivo, Ins2Akita mouse; details: 5 μg eye drop 2×/wk for 15 wks, versus the other peptides
transcription factors = assay: Procarta multiplex transcription factor DNA binding activity; assay type: cell-based; details: 50 nM peptides, 48 hr, human RPE cells
Procedure: Activation of transcription factors by P78, spx or 81-5 was measured in human RPE cells. The Affymetrix Procarta Multiplex Transcription factor panel (Affymetrix, Inc. Santa Clara, Calif.) was used to obtain quantitative measurement of DNA binding activity of 44 transcription factors. Cells were seeded at 1×10^5 cells/ml in 6 well plates. Cells were treated with 50 nM peptides in 2% FBS medium for 48 hr, peptides were supplied twice after 24 hr. Cells were harvested using Buffer A working reagent (250 μl well)(1 ml Buffer A: 10 μl DTT, 10 μl protease inhibitor, 10 μl phosphatase inhibitor I, 10 μl phosphatase inhibitor II) and centrifuged at 14,000×g for 3 min at 4° C. Supernatant containing cytoplasmic proteins was collected and protein concentration estimated using the BioRad DC protein assay. To the nuclear pellets, 30 μl/well buffer B (1 ml Buffer B: 10 μl DTT, 10 μl protease inhibitor, 10 μl phosphatase inhibitor I) was added and the samples incubated for 2 hours at 200 rpm. Supernatant containing nuclear proteins was collected by centrifugation at 14,000×g for 5 min at 4° C. and protein concentration measured using Bio-Rad DC protein assay. […] The beads were washed again, resuspended with reading buffer, and incubated for 5 min at room temperature. DNA binding activity of the transcription factors was measured using the Bio-Plex 200 system (bio-Rad) and the xMAP technology.

Row | Compound | *ATP % to P78 (human ARPE19 cells) [%] | *ATP % to C (human ARPE19 cells) | *TNFα % to P78 (TNFα) [%] | *TNFα % to C (TNFα) | *IFNγ % to P78 (IFNγ) | *IFNγ % to C (IFNγ) [%] | *VEGF % to P78 (VEGFA) [%] | *VEGF % to C (VEGFA) [%] | better than P78 and the control in the inflammatory and angiogenesis assays (RPE cultures) | overall activity in the in vitro tests (RPE cultures; compared with P78 and other peptides) | albumin content in the retina (ELISA) [1] | better than P78 and control in the viability assay (human ARPE19 cells) | ATP viability tests: selection for in vivo studies (human ARPE19 cells) | ZO1 mRNA expression (ZO1 and occludin) | efficacy greater than P78 in all three in vitro tests (RPE cultures; inflammation, angiogenesis, cell viability, versus P78) | improvement to the control stressed samples in all three in vitro tests (RPE cultures; inflammation, angiogenesis, cell viability, versus control) | VEGF levels in the vitreous (VEGF) | helical structure by CD spectra [2] | effects in reducing IL-6 in vitreous (IL-6) | regulation of transcription factors (transcription factors)
1 | SAISIGADARTASIIHR [Peptide 81-3, SAISIGADARTASIIHR] | 5 | +11% | −8 | −7% | −4% | −9 | −7 | −12 | – | – | – | – | – | – | – | – | – | – | – | –
2 | SAISIGADERTESIIHR [Peptide 81-2, SAISIGADERTESIIHR] | −8 | +25% | −15 | −13% | −8% | −12 | −14 | −18 | 8-18% | good efficacy and bioavailability profiles | small but significant advantage over the other analogs | 8-26% | good candidates for the in vivo studies | higher expression of ZO1 compared to P78 and SpxA1 | – | – | – | – | – | –
3 | CCCC(=O)N[C@@H](CO)C(=O)N[C@@H](C)C(=O)N[C@H](C(=O)N[C@@H](CO)C(=O)N[C@H](C(=O)NCC(=O)N[C@@H](C)C(=O)N[C@@H](CC(=O)O)C(=O)N[C@@H](C)C(=O)N[C@@H](CCCNC(=N)N)C(=O)N[C@H](C(=O)N[C@@H](C)C(=O)N[C@@H](CO)C(=O)N[C@H](C(=O)N[C@H](C(=O)N[C@@H](Cc1c[nH]cn1)C(=O)N[C@@H](CCCNC(=N)N)C(=O)NCCOCCOCC(=O)O)[C@@H](C)CC)[C@@H](C)CC)[C@@H](C)O)[C@@H](C)CC)[C@@H](C)CC [Peptide 81-5, {BA*}SAISIGADARTASIIHR{PEG*}] (Butyryl-SAISIGADARTASIIHR[AEEA]-OH) | −41 | +65% | −19 | −18% | −15% | −20 | −16 | −20 | – | – | small but significant advantage over the other analogs | – | good candidates for the in vivo studies | higher expression of ZO1 compared to P78 and SpxA1 | 15-41% | 18-65% | slightly but significantly more effective | almost a perfect for alpha helix | slightly but significantly better effects in reducing IL-6 | –
4 | SALSLGADERTESIIHR [Peptide 81-1, SALSLGADERTESIIHR] | −11 | +9% | −5 | −3% | +1% | −4 | −3 | −8 | – | – | – | – | – | – | – | – | – | – | – | –
5 | VLLSPLSVATALSALSLGADERTESIIHRALYYDLISSPDIHGT [Peptide P-78, reference compound] | 0 | +17% | 0 | +2% | 0% | −5 | 0 | −5 | – | – | – | – | – | – | – | – | – | – | – | regulates transcription factors
6 | VLLSPLSVATALSALSLGADERTESIIHR [SpxA1] | −11 | +5% | −5 | −3% | −5% | −9 | 0 | −5 | – | – | small but significant advantage over the other analogs | – | – | – | – | – | – | – | – | regulates transcription factors

— patent publication US9611314B2, “Functional peptide analogs of PEDF” (The Penn State Research Foundation, priority 2013, dated 2017)
